Measurements reported in PubChem BioAssay AID1259280 (Sanger Institute, 2017)

- Aim: 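Kinase knock-downs that kill colorectal cancer cells or add to anchor drugs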 (primary screen)
- Cells: human SNU407 colorectal cancer cells
- Knock-down reagent: siRNA pool against human genes
- Conditions: anchor drugs BYL719 at 1 µM, cetuximab at 5 µg/ml or trametinib at 10 nM, or DMSO vehicle alone; exposure time not given
- Measurement: 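Viability per well scaled to a non-targeting pool and averaged over replicates, with a robust z-score from controls and a synergy score per anchor drug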
- Scale: viability z-score, no drug and viability vs control, no drug: higher = more cells survive the knock-down
- Units: viability vs control, no drug in fraction of control
- Rule for the call: 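Essential calls require a no-drug robust viability z-score under -3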
- Meaning of the calls: active = essential (knock-down alone kills cells); inactive = no change without drug
The whole screen tested 794 reagents; shown is an unselected part. In the full data, 12 (1.5%) were called active. 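Calls cover knock-down without drug only; synergy scores stand apart, values above 0.15 being treated as synergy.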 Viability is capped at 1. Further read-outs or replicates are left out here. Not given: the amount of reagent, the time to read-out.

{"gene":"TEC","viability z-score, no drug":0.0544,"viability vs control, no drug":0.935,"Outcome":"inactive"}
{"gene":"PIP4K2B","viability z-score, no drug":0.176,"viability vs control, no drug":0.945,"Outcome":"inactive"}
{"gene":"PIK3C2A","viability z-score, no drug":-3.26,"viability vs control, no drug":0.682,"Outcome":"active"}
{"gene":"MVK","viability z-score, no drug":-0.0409,"viability vs control, no drug":0.928,"Outcome":"inactive"}
{"gene":"BMPR2","viability z-score, no drug":-1.65,"viability vs control, no drug":0.805,"Outcome":"inactive"}
{"gene":"DGKG","viability z-score, no drug":0.901,"viability vs control, no drug":1,"Outcome":"inactive"}
{"gene":"LTK","viability z-score, no drug":0.784,"viability vs control, no drug":0.991,"Outcome":"inactive"}
{"gene":"CNOT1","viability z-score, no drug":-2.5,"viability vs control, no drug":0.74,"Outcome":"inactive"}
{"gene":"HK1","viability z-score, no drug":0.901,"viability vs control, no drug":1,"Outcome":"inactive"}
{"gene":"NEK2","viability z-score, no drug":-0.193,"viability vs control, no drug":0.916,"Outcome":"inactive"}
{"gene":"JAK1","viability z-score, no drug":0.705,"viability vs control, no drug":0.985,"Outcome":"inactive"}
{"gene":"AURKA","viability z-score, no drug":-5,"viability vs control, no drug":0.549,"Outcome":"active"}
{"gene":"CKM","viability z-score, no drug":0.901,"viability vs control, no drug":1,"Outcome":"inactive"}
{"gene":"CDK1","viability z-score, no drug":0.803,"viability vs control, no drug":0.993,"Outcome":"inactive"}
{"gene":"EPHA6","viability z-score, no drug":-2.25,"viability vs control, no drug":0.759,"Outcome":"inactive"}
{"gene":"TAOK1","viability z-score, no drug":-0.412,"viability vs control, no drug":0.9,"Outcome":"inactive"}
{"gene":"CAMKK1","viability z-score, no drug":0.901,"viability vs control, no drug":1,"Outcome":"inactive"}
{"gene":"EIF2AK3","viability z-score, no drug":0.734,"viability vs control, no drug":0.987,"Outcome":"inactive"}
{"gene":"DMPK","viability z-score, no drug":-0.942,"viability vs control, no drug":0.859,"Outcome":"inactive"}
{"gene":"PASK","viability z-score, no drug":-0.407,"viability vs control, no drug":0.9,"Outcome":"inactive"}
{"gene":"PANK3","viability z-score, no drug":0.901,"viability vs control, no drug":1,"Outcome":"inactive"}
{"gene":"TRPM7","viability z-score, no drug":-0.937,"viability vs control, no drug":0.86,"Outcome":"inactive"}
{"gene":"CSNK1A1","viability z-score, no drug":-0.327,"viability vs control, no drug":0.906,"Outcome":"inactive"}
{"gene":"MSR1","viability z-score, no drug":0.615,"viability vs control, no drug":0.978,"Outcome":"inactive"}
{"gene":"MYH10","viability z-score, no drug":0.0457,"viability vs control, no drug":0.935,"Outcome":"inactive"}
{"gene":"EFNB3","viability z-score, no drug":-1.06,"viability vs control, no drug":0.85,"Outcome":"inactive"}
{"gene":"CSNK2A2","viability z-score, no drug":-0.262,"viability vs control, no drug":0.911,"Outcome":"inactive"}
{"gene":"IKBKG","viability z-score, no drug":0.873,"viability vs control, no drug":0.998,"Outcome":"inactive"}
{"gene":"DGKQ","viability z-score, no drug":-0.592,"viability vs control, no drug":0.886,"Outcome":"inactive"}
{"gene":"GUCY2C","viability z-score, no drug":0.714,"viability vs control, no drug":0.986,"Outcome":"inactive"}
{"gene":"PRPS2","viability z-score, no drug":-0.771,"viability vs control, no drug":0.872,"Outcome":"inactive"}
{"gene":"TBK1","viability z-score, no drug":0.846,"viability vs control, no drug":0.996,"Outcome":"inactive"}
{"gene":"ZAP70","viability z-score, no drug":0.292,"viability vs control, no drug":0.953,"Outcome":"inactive"}
{"gene":"PI4KA","viability z-score, no drug":0.249,"viability vs control, no drug":0.95,"Outcome":"inactive"}
{"gene":"TRIB3","viability z-score, no drug":-0.246,"viability vs control, no drug":0.912,"Outcome":"inactive"}
{"gene":"TNIK","viability z-score, no drug":-2.12,"viability vs control, no drug":0.769,"Outcome":"inactive"}
